According to publication PMC12713023, “CDH1 Orchestrates Anabolic Events to Promote Cell Cycle Initiation” (Advanced Science, 2025):
Numbering of substitutions follows the chain as printed. These are yes or no findings as the source states them, for the method shown. For part of these data: In cells and extracts the contact can be indirect. Some entries that bind do so weakly or less than the wild type. For part of these data: Tags and fused reporters may be left off the sequences shown.

The chains behind the UniProt entries cited, without tags or fusion partners.
UniProt Q9UM11: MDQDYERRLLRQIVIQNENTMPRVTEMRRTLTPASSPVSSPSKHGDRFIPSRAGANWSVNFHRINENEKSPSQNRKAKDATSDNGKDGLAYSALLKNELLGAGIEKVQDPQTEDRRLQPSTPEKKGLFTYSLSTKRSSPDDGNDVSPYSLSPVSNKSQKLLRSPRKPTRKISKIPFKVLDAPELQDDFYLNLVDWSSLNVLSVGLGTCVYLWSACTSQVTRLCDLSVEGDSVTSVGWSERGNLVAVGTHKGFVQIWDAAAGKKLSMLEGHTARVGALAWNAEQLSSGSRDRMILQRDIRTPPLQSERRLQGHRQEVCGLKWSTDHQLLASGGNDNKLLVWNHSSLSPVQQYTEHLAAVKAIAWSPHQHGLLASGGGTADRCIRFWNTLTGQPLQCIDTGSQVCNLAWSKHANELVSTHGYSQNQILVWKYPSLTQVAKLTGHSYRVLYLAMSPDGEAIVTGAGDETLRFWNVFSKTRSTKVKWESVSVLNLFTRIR
UniProt Q9Y297: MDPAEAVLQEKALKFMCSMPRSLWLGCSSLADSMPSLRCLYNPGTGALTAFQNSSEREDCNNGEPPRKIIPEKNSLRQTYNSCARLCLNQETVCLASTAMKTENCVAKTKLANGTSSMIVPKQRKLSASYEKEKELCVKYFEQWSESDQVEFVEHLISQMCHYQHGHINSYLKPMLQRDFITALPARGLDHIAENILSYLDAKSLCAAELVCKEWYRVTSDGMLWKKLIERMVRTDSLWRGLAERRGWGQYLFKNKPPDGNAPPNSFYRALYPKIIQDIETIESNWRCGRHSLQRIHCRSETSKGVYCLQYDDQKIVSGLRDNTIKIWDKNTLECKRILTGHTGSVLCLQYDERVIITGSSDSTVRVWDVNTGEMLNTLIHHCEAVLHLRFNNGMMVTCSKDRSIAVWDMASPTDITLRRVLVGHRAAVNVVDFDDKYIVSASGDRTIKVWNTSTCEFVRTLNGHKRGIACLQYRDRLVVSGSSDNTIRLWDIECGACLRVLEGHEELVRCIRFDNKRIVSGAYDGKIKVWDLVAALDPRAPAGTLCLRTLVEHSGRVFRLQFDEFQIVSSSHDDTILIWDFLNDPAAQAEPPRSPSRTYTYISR

Legend:
TKTL1^ΔD-box (human) = target: T1, TKTL1^ΔD-box (human) (UniProt P51854); assay: co-IP; HeLa cells (for CDH1 with β-TRCP1 also TKTL1 KO HeLa cells), with or without R5P supplementation; lysis in 0.5% NP-40 buffer (50 mM Tris-HCl pH 7.5, 150 mM NaCl); Flag beads at 4 °C overnight
T1 sequence: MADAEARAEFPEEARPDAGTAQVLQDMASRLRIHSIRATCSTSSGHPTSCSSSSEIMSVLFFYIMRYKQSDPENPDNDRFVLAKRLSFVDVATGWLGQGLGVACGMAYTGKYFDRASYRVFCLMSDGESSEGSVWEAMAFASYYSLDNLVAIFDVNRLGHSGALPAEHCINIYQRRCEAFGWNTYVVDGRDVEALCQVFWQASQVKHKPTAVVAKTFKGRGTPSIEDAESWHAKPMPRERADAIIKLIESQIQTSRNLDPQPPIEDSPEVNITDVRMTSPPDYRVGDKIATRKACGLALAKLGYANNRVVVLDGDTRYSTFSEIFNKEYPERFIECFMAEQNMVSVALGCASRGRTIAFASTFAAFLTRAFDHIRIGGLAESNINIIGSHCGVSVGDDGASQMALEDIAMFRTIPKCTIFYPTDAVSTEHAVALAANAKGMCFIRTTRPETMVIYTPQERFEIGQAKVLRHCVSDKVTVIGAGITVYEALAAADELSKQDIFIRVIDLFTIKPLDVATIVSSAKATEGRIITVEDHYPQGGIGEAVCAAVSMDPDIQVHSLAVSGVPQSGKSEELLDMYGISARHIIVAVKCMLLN

[1] = target: T2, transketolase-like-1 (TKTL1) (human) (UniProt P51854); assay: as above
T2 sequence: T1 sequence with A18R, A21L

TKTL1^ΔSGS (human) = target: T3, TKTL1^ΔSGS (human) (UniProt P51854); assay: as above
T3 sequence: T1 sequence with A18R, A21L, S564A, G565A

[2] = target: T2, transketolase-like-1 (TKTL1) (human); assay: pull-down; in vitro; proteins purified from HeLa cells; Flag-tagged protein captured on Flag beads incubated at 4 °C overnight with Myc-tagged protein eluted by peptide from protein A beads; washed with 0.1% NP-40 buffer; with or without R5P; both purified
[3] = target: T4, pyruvate dehydrogenase E1 subunit alpha 1 (PDHA1)-Flag (UniProt P08559); assay: co-IP; cells co-expressing PDHA1-Flag and PDHB-Myc lysed in 0.1% NP-40 buffer; PDHA1 precipitated with Flag beads; PDHB quantified by western blot with anti-Myc tag antibody
T4 sequence: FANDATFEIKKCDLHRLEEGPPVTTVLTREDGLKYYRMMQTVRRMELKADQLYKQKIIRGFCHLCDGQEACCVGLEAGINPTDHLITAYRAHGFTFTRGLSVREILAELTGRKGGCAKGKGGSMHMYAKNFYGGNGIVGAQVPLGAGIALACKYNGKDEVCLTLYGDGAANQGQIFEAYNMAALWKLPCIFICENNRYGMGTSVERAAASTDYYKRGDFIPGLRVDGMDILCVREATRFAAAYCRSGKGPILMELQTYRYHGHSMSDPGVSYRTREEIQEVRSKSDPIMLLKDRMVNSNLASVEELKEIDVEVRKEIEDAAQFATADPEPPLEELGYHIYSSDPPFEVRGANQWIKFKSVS

[4] = target: cell division cycle 20-like protein 1 (CDH1) (UniProt Q9UM11); assay: co-IP; HeLa cells (for CDH1 with β-TRCP1 also TKTL1 KO HeLa cells), with or without R5P supplementation; lysis in 0.5% NP-40 buffer (50 mM Tris-HCl pH 7.5, 150 mM NaCl); Flag beads at 4 °C overnight

Molecule: cell division cycle 20-like protein 1 (CDH1) (from UniProt Q9UM11 1-496)
- binding (TKTL1^ΔD-box (human)): binds

Molecule: β-transducin repeat-containing protein 1 (β-TRCP1) (from UniProt Q9Y297 1-605)
- binding [1]: binds
- binding (TKTL1^ΔSGS (human)): binds
- binding [2]: binds

B1: PDHB-Myc (protein, UniProt P11177 31-359)
chain: LQVTVRDAINQGMDEELERDEKVFLLGEEVAQYDGAYKVSRGLWKKYGDKRIIDTPISEMGFAGIAVGAAMAGLRPICEFMTFNFSMQAIDQVINSAAKTYYMSGGLQPVPIVFRGPNGASAGVAAQHSQCFAAWYGHCPGLKVVSPWNSEDAKGLIKSAIRDNNPVVVLENELMYGVPFEFPPEAQSKDFLIPIGKAKIERQGTHITVVSHSRPVGHCLEAAAVLSKEGVECEVINMRTIRPMDMETIEASVMKTNHLVTVEGGWPQFGVGAEICARIMEGPAFNFLDAPAVRVTGADVPMPYAKILEDNSIPQVKDIIFAIKKTLNI
- binding [3]: binds

B2: endogenous TKTL1 (protein, UniProt P51854 1-596)
chain: T1 sequence with A18R, A21L
- binding [4]: binds
